For assay [1], the target named is T1, mouse PRDX4 with a HA tag (generated in house) (mouse) (UniProt O08807).
T1 sequence (looked up): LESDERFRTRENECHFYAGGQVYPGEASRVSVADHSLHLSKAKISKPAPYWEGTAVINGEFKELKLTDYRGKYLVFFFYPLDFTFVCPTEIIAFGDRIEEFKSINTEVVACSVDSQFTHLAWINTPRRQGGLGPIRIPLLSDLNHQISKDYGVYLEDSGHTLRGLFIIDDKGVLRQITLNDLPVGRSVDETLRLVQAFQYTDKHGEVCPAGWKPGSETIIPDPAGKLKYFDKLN
In words: ELISA, DAMP coated at 2 µg/mL, AIM in solution (FIG. 4). On the technique in general: In an ELISA, binding on a coated surface is turned into a signal by an enzyme label.

Assay [2] concerns the target T2, mouse PRDX3 with a HA tag (generated in house) (mouse) (UniProt P20108).
T2 sequence (looked up): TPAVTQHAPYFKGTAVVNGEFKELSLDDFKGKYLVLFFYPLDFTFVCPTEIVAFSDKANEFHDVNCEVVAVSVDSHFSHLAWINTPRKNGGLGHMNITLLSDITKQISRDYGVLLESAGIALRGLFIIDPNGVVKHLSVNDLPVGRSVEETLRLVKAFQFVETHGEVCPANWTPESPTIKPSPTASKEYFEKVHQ
The assay is described as above.

The target of assay [3] is T3, mouse PRDX5 with a HA tag (generated in house) (mouse) (UniProt P99029).
T3 sequence (looked up): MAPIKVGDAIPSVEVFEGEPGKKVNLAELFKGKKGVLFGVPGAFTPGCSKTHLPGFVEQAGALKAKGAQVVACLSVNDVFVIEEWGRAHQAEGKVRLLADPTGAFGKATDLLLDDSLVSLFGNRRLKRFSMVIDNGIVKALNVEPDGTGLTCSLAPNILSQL
The assay is described as above.

Assay [4] concerns the target T4, human PRDX1-His (NBC118543, Novus Biologics) (human) (UniProt Q06830).
T4 sequence (looked up): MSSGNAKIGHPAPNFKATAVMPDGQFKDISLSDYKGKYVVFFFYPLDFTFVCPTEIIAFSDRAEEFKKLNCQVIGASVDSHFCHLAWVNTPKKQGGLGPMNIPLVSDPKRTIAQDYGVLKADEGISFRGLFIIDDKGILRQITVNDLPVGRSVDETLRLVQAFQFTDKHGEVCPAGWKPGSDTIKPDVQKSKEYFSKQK
In words: ELISA, DAMP coated at 2 µg/mL, AIM in solution (FIG. 3A).

The values below come from patent US20250108090A1.

No constants are given. Whether binding was seen depends on the method and setting. Some entries that bind do so weakly or less than the wild type. Where a sequence is shown, tags or fusion partners need not be part of it.

B1: mouse apoptosis inhibitor of macrophage (AIM), wild-type recombinant (protein, UniProt Q9QWK4 22-352, looked up)
chain: ESPTKVQLVGGAHRCEGRVEVEHNGQWGTVCDDGWDRRDVAVVCRELNCGAVIQTPRGASYQPPASEQRVLIQGVDCNGTEDTLAQCELNYDVFDCSHEEDAGAQCENPDSDLLFIPEDVRLVDGPGHCQGRVEVLHQSQWSTVCKAGWNLQVSKVVCRQLGCGRALLTYGSCNKNTQGKGPIWMGKMSCSGQEANLRSCLLSRLENNCTHGEDTWMECEDPFELKLVGGDTPCSGRLEVLHKGSWGSVCDDNWGEKEDQVVCKQLGCGKSLHPSPKTRKIYGPGAGRIWLDDVNCSGKEQSLEFCRHRLWGYHDCTHKEDVEVICTDFDV
In the case of B1, the binding result in assay [1], in assay [2] and in assay [3] was “binds” each time.

B2: human apoptosis inhibitor of macrophage (AIM) (protein)
chain: SPSGVRLVGGLHRCEGRVEVEQKGQWGTVCDDGWDIKDVAVLCRELGCGAASGTPSGILYEPPAEKEQKVLIQSVSCTGTEDTLAQCEQEEVYDCSHDEDAGASCENPESSFSPVPEGVRLADGPGHCKGRVEVKHQNQWYTVCQTGWSLRAAKVVCRQLGCGRAVLTQKRCNKHAYGRKPIWLSQMSCSGREATLQDCPSGPWGKNTCNHDEDTWVECEDPFDLRLVGGDNLCSGRLEVLHKGVWGSVCDDNWGEKEDQVVCKQLGCGKSLSPSFRDRKCYGPGVGRIWLDNVRCSGEEQSLEQCQHRFWGFHDCTHQEDVAVICSG
For B2, in assay [4], the binding result was “binds”.
